No constants are given. Whether binding was seen depends on the method and setting. In cells and extracts the contact can be indirect. Some entries that bind do so weakly or less than the wild type. For some of these results: Sequences can lack the tags named with a protein.
Tests used:
Test in all cases: co-IP
[1] = molecular target: DsRed2-CCDC47_(ΔG+ΔCC)^MYC (human) (UniProt Q96A33)
[2] = molecular target: T1, DsRed2-CCDC47_(full)^MYC (human) (UniProt Q96A33)
T1 sequence: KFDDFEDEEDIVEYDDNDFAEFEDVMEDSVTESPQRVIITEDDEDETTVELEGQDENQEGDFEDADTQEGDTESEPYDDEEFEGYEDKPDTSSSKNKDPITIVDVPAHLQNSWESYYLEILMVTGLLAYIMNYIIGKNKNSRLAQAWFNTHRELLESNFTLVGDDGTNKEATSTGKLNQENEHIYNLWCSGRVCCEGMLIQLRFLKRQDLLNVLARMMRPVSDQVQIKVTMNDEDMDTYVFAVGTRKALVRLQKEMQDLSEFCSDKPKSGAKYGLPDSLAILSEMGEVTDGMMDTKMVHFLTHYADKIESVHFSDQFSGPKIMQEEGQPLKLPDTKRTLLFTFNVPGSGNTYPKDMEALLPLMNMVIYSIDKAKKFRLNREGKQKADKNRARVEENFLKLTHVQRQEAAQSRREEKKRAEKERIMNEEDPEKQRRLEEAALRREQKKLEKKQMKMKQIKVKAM

The chains behind the UniProt entries cited, without tags or fusion partners. Residues count along the entry.
UniProt Q13586, residues 23-685: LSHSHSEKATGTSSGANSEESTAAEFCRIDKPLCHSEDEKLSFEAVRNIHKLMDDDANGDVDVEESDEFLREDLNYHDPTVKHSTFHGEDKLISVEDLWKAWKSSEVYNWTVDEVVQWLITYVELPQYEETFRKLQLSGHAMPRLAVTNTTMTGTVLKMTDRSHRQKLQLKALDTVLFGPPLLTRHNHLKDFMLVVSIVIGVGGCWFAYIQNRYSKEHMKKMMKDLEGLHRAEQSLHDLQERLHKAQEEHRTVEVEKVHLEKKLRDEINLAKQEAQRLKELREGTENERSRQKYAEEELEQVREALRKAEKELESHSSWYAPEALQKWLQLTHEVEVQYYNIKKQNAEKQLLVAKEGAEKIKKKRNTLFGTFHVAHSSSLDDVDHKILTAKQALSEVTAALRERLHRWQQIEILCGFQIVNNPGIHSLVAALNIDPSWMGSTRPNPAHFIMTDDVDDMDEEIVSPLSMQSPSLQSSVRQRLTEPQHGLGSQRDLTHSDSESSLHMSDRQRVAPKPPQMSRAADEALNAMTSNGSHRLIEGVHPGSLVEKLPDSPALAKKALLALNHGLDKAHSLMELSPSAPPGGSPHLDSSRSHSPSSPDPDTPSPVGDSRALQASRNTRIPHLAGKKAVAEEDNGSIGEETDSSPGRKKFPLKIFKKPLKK

[3] = molecular target: DsRed2-CCDC47ΔCC^MYC (human) (UniProt Q96A33)
[4] = molecular target: DsRed2-CCDC47TM^MYC (human) (UniProt Q96A33)

Measured: binding

STIM1^mCherry (from UniProt Q13586 23-685)
binds: all assays above

Reference: article doi:10.1101/2023.09.13.557610
